Earlier results, collected in patent US20210060033A1, “ORALLY ADMINISTERED COMBINATIONS OF BETA-LACTAM ANTIBIOTICS AND AVIBACTAM DERIVATIVES FOR TREATING BACTERIAL INFECTIONS” (priority 2019, published 2021).
Some of these results come from one statement about several compounds together.

Details: species not given; cited from earlier work

Row | SMILES | oral bioavailability (% F)
1 | COCCOC(=O)C(C)(C)COS(=O)(=O)ON1C(=O)N2C[C@H]1CC[C@H]2C(N)=O [avibactam derivative (15), 2-methoxyethyl 3-(((((1R,2S,5R)-2-carbamoyl-7-oxo-1,6-diazabicyclo[3.2.1]octan-6-yl)oxy)sulfonyl)oxy)-2,2-dimethylpropanoate] | greater than 10 % F
2 | CC(C)(COS(=O)(=O)ON1C(=O)N2C[C@H]1CC[C@H]2C(N)=O)C(=O)OC1COC1 [avibactam derivative (16), oxetan-3-yl 3-(((((1R,2S,5R)-2-carbamoyl-7-oxo-1,6-diazabicyclo[3.2.1]octan-6-yl)oxy)sulfonyl)oxy)-2,2-dimethylpropanoate] | greater than 10 % F
3 | CCOC(=O)C1(COS(=O)(=O)ON2C(=O)N3C[C@H]2CC[C@H]3C(N)=O)CCCCC1 [avibactam derivative (17), ethyl 1-((((((1R,2S,5R)-2-carbamoyl-7-oxo-1,6-diazabicyclo[3.2.1]octan-6-yl)oxy)sulfonyl)oxy)methyl)cyclohexanecarboxylate] | greater than 10 % F
4 | CCOC(=O)C1(COS(=O)(=O)ON2C(=O)N3C[C@H]2CC[C@H]3C(N)=O)CCCC1 [avibactam derivative (18), ethyl 1-((((((1R,2S,5R)-2-carbamoyl-7-oxo-1,6-diazabicyclo[3.2.1]octan-6-yl)oxy)sulfonyl)oxy)methyl)cyclopropanecarboxylate] | greater than 10 % F
5 | CCOC(=O)C1(COS(=O)(=O)ON2C(=O)N3C[C@H]2CC[C@H]3C(N)=O)CCC1 [avibactam derivative (19), ethyl 1-((((((1R,2S,5R)-2-carbamoyl-7-oxo-1,6-diazabicyclo[3.2.1]octan-6-yl)oxy)sulfonyl)oxy)methyl)cyclobutanecarboxylate] | greater than 10 % F
